Test results as given in the supplement of paper PMC12578635.
This is one part of the list. Cut-off read from the data, not from the text of the source: active = 150% or more and inactive = the rest. Single values are uncertain, as repeats are few or missing.

Each compound was assayed on Staphylococcus aureus JE2-lux inside RAW 264.7 macrophages (assay: intracellular bacterial bioluminescence relative to DMSO vehicle; higher = higher intracellular bacterial metabolic activity). Details: 10 µM; treatment time 4 h; gentamicin 50 µg/ml.
For `NC(=O)c1ccccc1NC(=O)CCn1c(=O)oc2ccccc21`, the intracellular bacterial bioluminescence was inactive: 87.8%.
`O=C(O)c1ccc2c(c1)C(=O)N(C(CC1=C[NH2+]C=N1)C(=O)[O-])C2=O` (stereo unspecified) was tested, and the intracellular bacterial bioluminescence was inactive: 94.2%.
In the case of `CC(c1ccccc1)n1c(CN2CCCCC2)nc2ccccc21` (stereo unspecified), the intracellular bacterial bioluminescence is reported as inactive: 78.9%.
In the case of `Cc1ccc(C)c(CC(=O)Nc2nc3ccc4nc(C)sc4c3s2)c1`, the intracellular bacterial bioluminescence is reported as inactive: 71.4%.
`Cc1cc(C)c(C(=O)c2sc3nc(C)cc(C)c3c2N)c(C)c1` was tested, and the intracellular bacterial bioluminescence was inactive: 86.7%.
For `O=C(Nc1ccccc1F)N1CCC(c2nc3cc(Cl)ccc3[nH]2)CC1`, the intracellular bacterial bioluminescence was inactive: 111%.
`Cc1cc(NC(=O)CSc2nnc(NC(=O)C3CC(=O)N(c4ccc(C)c(C)c4)C3)s2)no1` (stereo unspecified) was tested, and the intracellular bacterial bioluminescence was inactive: 88.6%.
With `Cc1nn2cc(C#N)c(-c3ccccc3)nc2c1-c1ccccc1` the intracellular bacterial bioluminescence was inactive: 119%.
For `CCn1c2c(c(=O)[nH]c1=O)C(c1cccs1)C1=C(COC1=O)N2` (stereo unspecified), the intracellular bacterial bioluminescence was inactive: 106%.
With `CCCCCn1c(SCC(=O)CC(=O)OCC)nc2cc(C(=O)NCc3ccco3)ccc2c1=O` the intracellular bacterial bioluminescence was inactive: 89.2%.
`CCOc1ccccc1NCc1nc2nc(C)cc(C)n2n1` was tested, and the intracellular bacterial bioluminescence was inactive: 84.9%.
For `NC(=O)c1cc2cc(Cl)ccc2o/c1=N\c1cccc(C(F)(F)F)c1`, the intracellular bacterial bioluminescence was inactive: 88.3%.
For `COCCn1c(=O)[nH]c2ccccc2/c1=N\C(=O)Nc1ccccc1C#N`, the intracellular bacterial bioluminescence was inactive: 117%.
In the case of `COc1cccc(-c2cc(C(F)(F)F)n3ncc(C(=O)O)c3n2)c1`, the intracellular bacterial bioluminescence is reported as inactive: 111%.
`O=c1oc2cc([N+](=O)[O-])ccc2c2ccc([N+](=O)[O-])cc12` was tested, and the intracellular bacterial bioluminescence was inactive: 94.2%.
In the case of `COc1ccc(S(=O)(=O)N2CCOCC2)cc1C(=O)NCc1ccc2c(c1)OCO2`, the intracellular bacterial bioluminescence is reported as inactive: 106%.
In the case of `COc1ccc2nc(Nc3nc4c(s3)CCCC4)sc2c1`, the intracellular bacterial bioluminescence is reported as inactive: 68.8%.
With `Cc1nc(Nc2ccc(NS(=O)(=O)c3ccc(F)cc3F)cc2)cc(N(C)C)n1` the intracellular bacterial bioluminescence was inactive: 92.8%.
For `Cc1ccc(C)c2[nH]c(=O)c(CCNC(=O)c3ccccc3F)cc12`, the intracellular bacterial bioluminescence was inactive: 104%.
`CCOc1ccc2c(c1)sc1nc(-c3ccc(C(C)C)cc3)c(NCCOC)n12` was tested, and the intracellular bacterial bioluminescence was inactive: 97.4%.
`CCCn1ncc(C)c1NC(=O)Cn1nc2c(C)cc3ccc(OC)cc3n2c1=O` was tested, and the intracellular bacterial bioluminescence was inactive: 91.3%.
In the case of `CCOc1ccc(NC(=O)Cn2c(=O)c3cccnc3n(-c3ccccc3)c2=O)cc1`, the intracellular bacterial bioluminescence is reported as inactive: 105%.
`Cc1c(S(=O)(=O)N2CCC(c3nnc(C(=O)Nc4ccccc4)s3)CC2)cnn1C(F)F` was tested, and the intracellular bacterial bioluminescence was inactive: 85.2%.
For `COc1ccc(CC(=O)N2CCN(c3c(C)n(C)c(=O)n(C)c3=O)CC2)cc1OC`, the intracellular bacterial bioluminescence was inactive: 126%.
`Cc1ccccc1-n1cc(-c2ccccc2)c2c(NC3CCCCC3)ncnc21` was tested, and the intracellular bacterial bioluminescence was inactive: 108%.
With `O=C(c1cccnc1)N1CCc2c([nH]c3ccccc23)C1c1ccc(Cl)cc1` (stereo unspecified) the intracellular bacterial bioluminescence was inactive: 95.4%.
With `O=S(=O)(c1cn(Cc2noc(-c3cc4cc(Cl)ccc4[nH]3)n2)cn1)N1CCOCC1` the intracellular bacterial bioluminescence was inactive: 117%.
In the case of `CCc1noc2nc(C(=O)O)nc(N3CCOCC3)c12`, the intracellular bacterial bioluminescence is reported as inactive: 117%.
`CC1(C)Cc2c(sc(NC(=O)c3ccc4ncsc4c3)c2C(N)=O)C(C)(C)N1` was tested, and the intracellular bacterial bioluminescence was inactive: 106%.
`Cc1cccc(C2Oc3ccccc3C3CC(c4cccc(NS(C)(=O)=O)c4)=NN32)c1` (stereo unspecified) was tested, and the intracellular bacterial bioluminescence was inactive: 91.3%.
`COCCNC(=O)c1nn(C)c2c1CCc1ccccc1-2` was tested, and the intracellular bacterial bioluminescence was inactive: 80.3%.
For `COc1ccc(Cl)c2sc(N3CCN(C(=O)c4cccc(N5C(=O)CCC5=O)c4)CC3)nc12`, the intracellular bacterial bioluminescence was inactive: 129%.
With `COc1cccc(C(=O)NCC(=O)N/N=C/c2cccs2)c1` the intracellular bacterial bioluminescence was inactive: 94.7%.
For `CCc1cc2c(=O)n(-c3ccc(Cl)cc3)c(SCC(=O)c3cccs3)nc2s1`, the intracellular bacterial bioluminescence was inactive: 109%.
`Cc1cc(C(=O)NC(c2ccccc2)c2ccnn2C)c2cccc(Cl)c2n1` (stereo unspecified) was tested, and the intracellular bacterial bioluminescence was inactive: 103%.
For `O=C(CSC1=NS(=O)(=O)c2ccccc2N1)Nc1ccc2c(c1)OCCO2`, the intracellular bacterial bioluminescence was inactive: 128%.
In the case of `CC(=O)c1c(C)nn(CC(O)COc2ccc(C(=O)c3ccc(Cl)cc3)cc2)c1C` (stereo unspecified), the intracellular bacterial bioluminescence is reported as inactive: 63.4%.
With `Clc1cccc2sc(N3CCN(c4ccccc4)CC3)nc12` the intracellular bacterial bioluminescence was inactive: 79.7%.
With `CCOc1ccc(Oc2nc(C)nc3sc4c(c23)CCCC4)cc1` the intracellular bacterial bioluminescence was inactive: 116%.
With `CCS(=O)(=O)c1ccccc1C(=O)Nc1nc2c(s1)C(=O)CC(C)(C)C2` the intracellular bacterial bioluminescence was inactive: 105%.
In the case of `O=C(C1CCCN(c2nccnc2Oc2ccccc2)C1)N1CCN(c2ccccc2)CC1` (stereo unspecified), the intracellular bacterial bioluminescence is reported as inactive: 32.9%.
With `O=c1[nH]cc(S(=O)(=O)N2CCc3ccccc3C2)c(=O)[nH]1` the intracellular bacterial bioluminescence was inactive: 115%.
With `Nc1c(C(=O)Nc2ccc(Br)cc2)sc2[nH]c(=O)c(C(=O)O)cc12` the intracellular bacterial bioluminescence was inactive: 77.5%.
`Cc1ccc2c(c1)cc(C)c1nnc(SCC(=O)Nc3cc(C)on3)n12` was tested, and the intracellular bacterial bioluminescence was inactive: 107%.
For `Cc1noc(C)c1C(=O)Nc1ccccc1NC(=O)c1ccccn1`, the intracellular bacterial bioluminescence was inactive: 117%.
With `Cc1c(CCC(C)C)c(NCCN(C)C)n2c(nc3ccccc32)c1C#N` the intracellular bacterial bioluminescence was inactive: 116%.
In the case of `CSc1nc2ccc3nc(NC(=O)CN4C(=O)c5ccccc5C4=O)sc3c2s1`, the intracellular bacterial bioluminescence is reported as inactive: 69.9%.
For `Cn1c(=O)c(O)c2c3c(cccc31)C(=O)c1ccccc1-2`, the intracellular bacterial bioluminescence was inactive: 98%.
For `O=C(Nc1ccc(F)cc1F)c1nnc(C2CCN(C(=O)C3CCCCC3)CC2)s1`, the intracellular bacterial bioluminescence was inactive: 78%.
With `O=C(Nc1cc(C(F)(F)F)cc(C(F)(F)F)c1)c1cnc2sccn2c1=O` the intracellular bacterial bioluminescence was inactive: 103%.
With `CCOC(=O)c1cccc(NC(=O)CSc2nnc3ccc(C(=O)NCc4ccccc4)cn23)c1` the intracellular bacterial bioluminescence was inactive: 71.7%.
In the case of `Cc1cc(=O)[nH]c2c(C)cc(S(=O)(=O)Nc3ccc(O)cc3)cc12`, the intracellular bacterial bioluminescence is reported as inactive: 118%.
In the case of `COc1cc(/C=C(\C#N)c2nc(-c3ccc(F)cc3)cs2)cc([N+](=O)[O-])c1O`, the intracellular bacterial bioluminescence is reported as inactive: 69.5%.
`O=C(CN1CCC(n2cnc3cccnc32)CC1)Nc1nccs1` was tested, and the intracellular bacterial bioluminescence was inactive: 60%.
With `CCn1cc(C(=O)Nc2ccc(F)c(F)c2)c2nn(-c3ccccc3)c(=O)c-2c1` the intracellular bacterial bioluminescence was inactive: 79.4%.
For `COc1ccc(Cl)cc1S(=O)(=O)Nc1ccc(-c2nnc(-c3ccccc3)o2)cc1`, the intracellular bacterial bioluminescence was inactive: 111%.
For `COC(=O)c1ccccc1-c1ccc(/C=C/c2cc(C(=O)O)c3ccccc3n2)o1`, the intracellular bacterial bioluminescence was inactive: 111%.
`C=CCn1ccn(-c2cccc(Cl)c2)c(=O)c1=O` was tested, and the intracellular bacterial bioluminescence was inactive: 112%.
With `Cc1ccccc1-c1nc2n(CC(=O)Nc3nccs3)c(C)cc(=O)n2n1` the intracellular bacterial bioluminescence was inactive: 111%.
In the case of `Cc1ccc2nc(NNC(=O)c3ccc(S(=O)(=O)N4CCC(C)CC4)cc3)sc2c1`, the intracellular bacterial bioluminescence is reported as inactive: 79%.
For `Clc1ccc(-c2nnn3c2nc(NCc2cccs2)c2ccccc23)cc1`, the intracellular bacterial bioluminescence was inactive: 115%.
`Cc1nnc(NC(=O)CSc2nc(-c3ccccc3C)nc3cc(=O)[nH]n23)s1` was tested, and the intracellular bacterial bioluminescence was inactive: 79.5%.
With `CCOC(=O)c1sc2nc(NC(=O)c3ccc(N(C)C)cc3)sc2c1C` the intracellular bacterial bioluminescence was inactive: 98.6%.
With `COc1ccc(OC)c(NS(=O)(=O)c2cc(-c3ccn[nH]3)cs2)c1` the intracellular bacterial bioluminescence was inactive: 101%.
In the case of `O=C(CN1C(=O)S/C(=C\c2ccccc2)C1=O)NCCN1C(=O)CSC1=O`, the intracellular bacterial bioluminescence is reported as inactive: 77.4%.
`Cc1cc(C)c2sc(NNC(=O)C3COc4ccccc4O3)nc2c1` (stereo unspecified) was tested, and the intracellular bacterial bioluminescence was inactive: 35.5%.
In the case of `Cc1nn(-c2ccccc2)c2[nH]c(=O)c(CNC(c3ccccc3)c3ccco3)cc12` (stereo unspecified), the intracellular bacterial bioluminescence is reported as inactive: 134%.
With `O=C(Nc1ccc(Cl)cn1)c1ccc(SCCN2CCOCC2)nc1` the intracellular bacterial bioluminescence was inactive: 77.9%.
`O=C(Cn1c2ccccc2c(=O)c2ccccc21)Nc1ccccc1F` was tested, and the intracellular bacterial bioluminescence was inactive: 95%.
`COc1ccc2c(C)cc(SCC(=O)Nc3c(C)cccc3C)nc2c1` was tested, and the intracellular bacterial bioluminescence was inactive: 107%.
In the case of `N#Cc1c(NC(=O)CSc2nnc3sc4ccccc4n23)sc2c1CCC2`, the intracellular bacterial bioluminescence is reported as inactive: 62.3%.
In the case of `CCc1ccc(-n2nc(-c3nc(-c4ccncc4)no3)c3ccccc3c2=O)cc1`, the intracellular bacterial bioluminescence is reported as inactive: 71.1%.
In the case of `COC(=O)COc1cc2c(-c3cc4cccc(OC)c4o3)cc(=O)oc2cc1C`, the intracellular bacterial bioluminescence is reported as active: 188%.
`Cc1onc(-c2ccccc2)c1C(=O)N1CCc2ccccc2C1` was tested, and the intracellular bacterial bioluminescence was inactive: 81%.
With `O=c1c2ccccc2nc2c3ccccc3c(Cl)nn12` the intracellular bacterial bioluminescence was inactive: 94.4%.
With `CC(=O)c1cccc(NC(=O)NC2CC3CCC(C2)N3Cc2ccc(F)cc2)c1` (stereo unspecified) the intracellular bacterial bioluminescence was inactive: 63.7%.
In the case of `COc1ccc(Nc2nc(-c3ccccc3)c(C(=O)Nc3cccnc3)s2)cc1`, the intracellular bacterial bioluminescence is reported as inactive: 82.5%.
`O=C(Cn1c2c(c(=O)n3ncnc13)CCC2)Nc1ccccc1` was tested, and the intracellular bacterial bioluminescence was inactive: 110%.
In the case of `CCn1nc(C)c2[nH]c(=S)n(CC3CCCO3)c(=O)c21` (stereo unspecified), the intracellular bacterial bioluminescence is reported as inactive: 104%.
With `O=C(CSc1ncnc2sc3c(c12)CCCC3)Nc1ccc(Br)cc1` the intracellular bacterial bioluminescence was inactive: 88%.
With `CCOC(=O)C1=C(C)N=c2s/c(=C/c3cc([N+](=O)[O-])ccc3O)c(=O)n2C1c1cccs1` (stereo unspecified) the intracellular bacterial bioluminescence was inactive: 84.1%.
In the case of `Cc1ccc(C)c(NC(=O)Cn2ncn3nc4c(c3c2=O)CCCC4)c1`, the intracellular bacterial bioluminescence is reported as inactive: 21.6%.
`CC(C)c1ccc2nc(SCC(=O)Nc3c[nH]c(=O)[nH]c3=O)c(C#N)cc2c1` was tested, and the intracellular bacterial bioluminescence was inactive: 96.6%.
For `COc1ccc(S(=O)(=O)NCc2ccco2)cc1C(=O)O`, the intracellular bacterial bioluminescence was inactive: 101%.
With `CCCc1cc(CNC(=O)C2CC(c3cnn(C)c3)=NO2)on1` (stereo unspecified) the intracellular bacterial bioluminescence was inactive: 116%.
In the case of `Cc1nnc(SCC(=O)N2CCCCC2)n(N)c1=O`, the intracellular bacterial bioluminescence is reported as inactive: 113%.
For `O=C(COc1ccc(Cl)cc1)Nc1nc2ccc3ccccc3c2s1`, the intracellular bacterial bioluminescence was inactive: 99.8%.
In the case of `COc1ccc2[nH]c3c(=O)n(CCCCC(=O)NCc4cccnc4)c(=S)[nH]c3c2c1`, the intracellular bacterial bioluminescence is reported as inactive: 111%.
For `O=C(/C=C/c1ccccc1)Nc1nc2ccc(S(=O)(=O)N3CCCCC3)cc2s1`, the intracellular bacterial bioluminescence was inactive: 88.3%.
`COc1cccc(NC(=O)c2oc3ccccc3c2NC(=O)c2cccc([N+](=O)[O-])c2)c1` was tested, and the intracellular bacterial bioluminescence was inactive: 103%.
`O=C(CSc1nccc(O)n1)Nc1ccc(C(=O)NC2CC2)cc1` was tested, and the intracellular bacterial bioluminescence was inactive: 103%.
